Source: PMC3340383, “Synthesis and Evaluation of a Series of 2-Substituted-5-Thiopropylpiperazine (Piperidine)-1,3,4-Oxadiazoles Derivatives as Atypical Antipsychotics” (PLoS ONE, 2012)

System: catalepsy in mice
Experiment: Catalepsy test (horizontal bar)
Settings: for C/B: ratio catalepsy ED50 / MK-801-induced hyperactivity ED50

In the case of `Fc1ccc2c(C3CCN(CCCSc4nnc(-c5cccc6ccccc56)o4)CC3)noc2c1` [Compound 22, 2-(3-(4-(6-fluorobenzo[d]isoxazol-3-yl)piperidin-1-yl)propylthio)-5-(naphthalen-1-yl)-1,3,4-oxadiazole], the “therapeutic indices between efficacy (apomorphine or MK-801 models) and side effects (catalepsy)” value (mice, po, range over both efficacy models) is reported as 81–83 and the C/B is reported as 83.80.
For `O=C(CCCN1CCC(O)(c2ccc(Cl)cc2)CC1)c1ccc(F)cc1` [haloperidol], the C/B was 1.16 and the C/A (ratio catalepsy ED50 / apomorphine-induced climbing ED50) was 2.44.
